Experimental data reported in the supplement of paper PMC12823440, “Inhibitors supercharge kinase turnover through native proteolytic circuits” (Nature, 2025).
Where a name gives a salt, the structure may show the parent alone. Some of the results follow. The calls rarely recur for the same compound in another form.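 Kinases were expressed as nanoluciferase fusions in K562 cells and luminescence was read every 4 h between 2 and 18 h as percent of control, DMSO set to 100% and a positive control to 0%. A time point counts as decreased when the signal drops significantly (2 sigma). The hit call is the authors' own, does not follow from the count of time points alone, and its rule is not shown.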

Chains of the proteins cited; added tags and fusions are not shown. Lines headed by an entry give the natural chain unless they say otherwise; changes in a name come on top.
UniProt Q8IWU2: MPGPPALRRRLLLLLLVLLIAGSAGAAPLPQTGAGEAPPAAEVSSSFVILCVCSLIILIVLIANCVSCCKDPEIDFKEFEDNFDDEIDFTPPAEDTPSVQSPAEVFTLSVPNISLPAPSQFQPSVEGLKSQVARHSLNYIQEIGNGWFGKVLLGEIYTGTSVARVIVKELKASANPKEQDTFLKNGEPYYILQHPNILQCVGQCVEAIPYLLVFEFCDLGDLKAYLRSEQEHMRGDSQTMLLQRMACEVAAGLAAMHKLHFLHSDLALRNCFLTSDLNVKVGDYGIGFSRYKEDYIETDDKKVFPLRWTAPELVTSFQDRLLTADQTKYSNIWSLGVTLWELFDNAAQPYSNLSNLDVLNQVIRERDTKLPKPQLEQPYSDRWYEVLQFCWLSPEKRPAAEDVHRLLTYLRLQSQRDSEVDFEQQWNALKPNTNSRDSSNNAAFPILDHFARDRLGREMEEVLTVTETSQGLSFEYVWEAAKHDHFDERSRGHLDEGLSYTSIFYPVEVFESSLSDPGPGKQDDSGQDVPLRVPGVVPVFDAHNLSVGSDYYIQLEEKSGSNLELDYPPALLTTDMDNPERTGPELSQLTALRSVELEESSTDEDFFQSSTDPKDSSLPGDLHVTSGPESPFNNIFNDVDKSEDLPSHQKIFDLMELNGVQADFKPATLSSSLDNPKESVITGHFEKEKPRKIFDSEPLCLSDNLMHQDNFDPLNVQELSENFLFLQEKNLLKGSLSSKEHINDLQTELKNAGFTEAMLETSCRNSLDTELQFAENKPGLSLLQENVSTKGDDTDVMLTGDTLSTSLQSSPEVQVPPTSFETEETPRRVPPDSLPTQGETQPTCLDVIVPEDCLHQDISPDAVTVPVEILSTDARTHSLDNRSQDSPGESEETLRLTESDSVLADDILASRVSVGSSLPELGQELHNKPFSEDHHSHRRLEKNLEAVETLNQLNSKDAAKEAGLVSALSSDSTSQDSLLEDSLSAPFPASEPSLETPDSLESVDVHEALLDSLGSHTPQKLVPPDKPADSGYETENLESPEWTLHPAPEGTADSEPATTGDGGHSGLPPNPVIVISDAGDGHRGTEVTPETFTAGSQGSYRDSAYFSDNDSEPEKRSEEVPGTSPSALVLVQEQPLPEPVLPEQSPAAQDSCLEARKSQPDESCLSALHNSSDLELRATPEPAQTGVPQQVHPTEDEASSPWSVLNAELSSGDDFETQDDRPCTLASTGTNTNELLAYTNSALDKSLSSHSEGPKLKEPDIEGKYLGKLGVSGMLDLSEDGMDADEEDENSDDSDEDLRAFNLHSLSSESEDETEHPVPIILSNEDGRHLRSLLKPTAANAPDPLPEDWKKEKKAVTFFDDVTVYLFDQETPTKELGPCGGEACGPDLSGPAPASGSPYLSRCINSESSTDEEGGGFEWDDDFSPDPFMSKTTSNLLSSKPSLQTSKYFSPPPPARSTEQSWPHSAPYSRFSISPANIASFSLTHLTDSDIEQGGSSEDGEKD

These molecules were tested against LMTK2 (UniProt Q8IWU2) (assay: number of time points (of 5) at which kinase-Nluc abundance scored as decreased, DMSO-normalised (count); higher = more persistent destabilization). Details: K562; 2-18 h.

Structure (SMILES)	number of time points
CN1CCN(c2cc(-c3ccncc3)c(-c3ccc4ccccc4c3)nn2)CC1 (10 µM)	0
CC(O)(C#Cc1ccc2c(c1)N(c1nc(N)ncc1Cl)CC2)c1nccs1 (stereo not drawn) (2.5 µM)	0
COc1ccc(Nc2ncc(C(F)(F)F)c(NC3CC3)n2)cc1OC (10 µM)	2
O=c1cc(N2CCOCC2)oc2c(-c3ccc4c(c3)OCCO4)csc12 (2.5 µM)	0
N[C@@H]1CCCN(c2c(/C=C3\SC(=O)NC3=O)cccc2-c2ccccc2)C1 (10 µM)	0
N#Cc1ccc(-c2cnc3[nH]cc(NC(=O)c4cccnc4)c3c2)cc1 (10 µM)	0
COc1ccc(Br)cc1NC(=O)Nc1cccc2c1ccn2Cc1ccnc(N)c1 (2.5 µM)	0
COc1cc(N2CCOCC2)ccc1Nc1ncc(F)c(Nc2ccccc2NS(C)(=O)=O)n1 (10 µM)	0
COc1ccc(-c2cc(=O)c3c(OC)cc(OC)c(OC)c3o2)cc1 [6-Demethoxytangeretin] (10 µM)	0
COc1cc2c(cc1O)C[C@H]1c3cc(O)c(OC)cc3CC[N@@+]1(C)C2 [Phellodendrine] (10 µM)	0
CO[C@H]1C[C@@H]2CC[C@@H](C)[C@@](O)(O2)C(=O)C(=O)N2CCCC[C@H]2C(=O)O[C@H]([C@H](C)C[C@@H]2CC[C@@H](OC(=O)C(C)(CO)CO)[C@H](OC)C2)CC(=O)[C@H](C)/C=C(\C)[C@@H](O)[C@@H](OC)C(=O)[C@H](C)C[C@H](C)/C=C/C=C/C=C/1C [Temsirolimus] (2.5 µM)	0
O=C(ON=C1c2ccccc2-c2nc3ccccc3nc21)c1ccco1 (2.5 µM)	0
COc1ccc(S(=O)(=O)Nc2cc(-c3c(O)ccc4ccccc34)c(O)c3ccccc23)cc1 (10 µM)	0
Cc1cccc(COc2cccc(/C=C3\C(=O)NN(c4ccccc4)C3=O)c2)c1 (10 µM)	0
CC(C)Oc1ccc(F)c(-c2cnc(N)c(C(=O)Nc3cnccc3N3CCC[C@@H](C(=O)O)C3)n2)c1 (2 µM)	3
COc1cc(F)ccc1-c1ncnc(Nc2cccc(C[S@](C)(=N)=O)c2)n1 [Atuveciclib] (2.5 µM)	3
CC(C)n1ncnc1-c1cn2c(n1)-c1ccc(O[C@@H](C)C(N)=O)cc1OCC2 (10 µM)	0

Structure (SMILES)	number of time points
Cn1c(CNc2cccc(C(=O)NCc3ccccc3C(F)(F)F)c2)nnc1-c1ccncc1 (10 µM)	0
O=Nc1c(-c2c(O)[nH]c3cc(Br)ccc23)[nH]c2ccccc12 [GSK 3 Inhibitor IX] (2.5 µM)	0
Nc1ncc(C(=O)NC2CN(C(=O)C3CC3)C2)c2ccc(-c3cccc(F)c3)nc12 (2 µM)	0
O=C(Nc1cc(Cl)cc2c1[nH]c1cnccc12)c1cccnc1 (10 µM)	0
c1ccc(Cn2c(-c3ccc(OC[C@H](C4CCNCC4)n4c(-c5ccccc5)nc5ccccc54)cc3)nc3ccccc32)cc1 [Deltarasin] (2.5 µM)	0
COc1cc2ncnc(Nc3cccc(I)c3)c2cc1OC (2.5 µM)	0
Clc1ccc(C(c2ccc(Cl)cc2)[n+]2ccn(CC(OCc3ccc(Cl)cc3Cl)c3ccc(Cl)cc3Cl)c2)cc1 (stereo not drawn) [Calmidazolium chloride] (2.5 µM)	1
O=C(Nc1cccnc1)c1cc(-c2ccnc(F)c2)ccc1OCc1ccccc1 (10 µM)	0
c1nn(C2CCOCC2)cc1Nc1ncc2nnn(-c3ccc4cn[nH]c4c3)c2n1 (10 µM)	0
COC(=O)[C@H](CCSC)NC(=O)c1ccc(NC[C@@H](N)CS)cc1-c1ccccc1 [FTI-277 (hydrochloride)] (10 µM)	0
Cc1cc(Nc2cc(N)ncn2)c(=O)n2c1C(=O)NC21CCCCC1 [Tomivosertib] (10 µM)	0
CCc1c[nH]c2ncnc(N3CC[C@](N)(CNC(=O)c4ccc(F)cc4F)C3)c12 (10 µM)	0
Nc1ncnc2c1nc(Br)n2[C@@H]1O[C@@H]2COP(=O)(O)O[C@H]2[C@H]1O [8-Bromo-cAMP sodium salt] (10 µM)	0
CC(C)n1c(=O)n(C)c2cnc3cc(F)c(-c4ccc(OCCCN5CCCCC5)nc4)cc3c21 (10 µM)	0
Cc1ccc(C)c(OCCn2cc(C(=O)O)c3ccccc32)c1 (10 µM)	0
COCCOc1ccc2c(c1)ncn2-c1ccc2cccc(N3CCC(N)CC3)c2n1 (10 µM)	4

Taken from above.
number of time points, `O=C(Nc1cccnc1)c1cc(-c2ccnc(F)c2)ccc1OCc1ccccc1` (10 µM) is entered as 0
number of time points, `c1ccc(Cn2c(-c3ccc(OC[C@H](C4CCNCC4)n4c(-c5ccccc5)nc5ccccc54)cc3)nc3ccccc32)cc1` [Deltarasin] (2.5 µM) is entered as 0
